Literature values, collected in patent US20070243132A1, “Transdermal delivery of pharmaceutical agents” (priority 2005, published 2007).

Conditions: microemulsions compared to a conventional oil-in-water emulsion; cited from earlier work

CCN(CC)CC(=O)Nc1c(C)cccc1C [lidocaine]
increase of transdermal flux: up to four times
